The values that follow come from US10792633B2, “Composition comprising a fluorine-containing surfactant” (HWK-Kronbichler GmbH, priority 2016, dated 2020).

This data set can be described thus: Foam forming test in water (FIG. 7). The note with it: 20 mg in 10 ml water, shaken 1 minute.

Each structure is given as a SMILES string.

For `Cn1cc[n+](CCCS(=O)(=O)[O-])c1SCCC(F)(F)C(F)(F)C(F)(F)C(F)(F)C(F)(F)C(F)(F)F` [Synthesis Example 6, 3-(1-methyl-2-((1H,1H,2H,2H-perfluorooctyl)thio)imidazolium-3-yl) propane-1-sulfonate], the foam-generating effect entry was “active as a foam forming agent”. Under “listed as 3-(1-methyl-2-((1H,1H,2H,2H-perfluorooctyl)thio)imidazolium-3-yl) propane-1-sulf”, the foam-generating effect entry is “clear foaming”.
